PubChem BioAssay AID504744, Drosophila RNAi Screening Center, 2011
Aim: 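Find genes whose loss alters insulin-driven dAkt phosphorylation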 (primary screen). System: Drosophila Kc167 cells. Reagent: long dsRNA against Drosophila genes, 250 ng dsRNA per well of a 384-well plate. Duration: 3 days of knock-down, then overnight serum-free starvation before stimulation. Conditions: bovine insulin at 387 nM for 10 minutes after 12 h without serum. Detection: 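In-cell antibody fluorescence for phospho-dAkt in each well over DNA-dye signal, with log2 residuals expressed as z-scores adjusted for cell count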. Active means: 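Under insulin, a gene counts as a hit if the average z-score of two replicates lies above 2.5 or below -2.5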.
In all, the deposit lists about 23,000 reagents; below is an unselected part of those with a known target gene and a result. In the full data, 98 (0.43%) got an active call. 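Only hit calls are given; the phospho-dAkt signals, z-scores and hit direction were not deposited.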 Names joined by + are all predicted targets of the reagent. No sequences are given here.

target | amplicon | Call
Fatp (retired record) | DRSC03054 | inactive
Cep89 | DRSC07110 | inactive
Mgat3 | DRSC01305 | inactive
Mps1 | DRSC16273 | inactive
tow | DRSC10192 | inactive
Ifrd1 | DRSC00415 | inactive
Ifrd1 | DRSC00566 | inactive
Sym | DRSC12301 | inactive
Or65b | DRSC08809 | inactive
CG6962 | DRSC16153 | inactive
Z600 | DRSC11317 | inactive
GalT1 | DRSC22238 | inactive
wake | DRSC16148 | inactive
wake | DRSC16149 | inactive
t-Grip128 | DRSC07853 | inactive
ClC-c | DRSC10499 | inactive
Vps20 | DRSC04448 | inactive
CG31141 | DRSC13646 | inactive
miple2 | DRSC08723 | inactive
CG31347 | DRSC21582 | inactive
Ntf-2 | DRSC20552 | inactive
CG31898 | DRSC01019 | inactive
fit | DRSC15280 | inactive
Hasp | DRSC02022 | inactive
Men | DRSC12924 | inactive
Men | DRSC16738 | inactive
Men | DRSC22694 | inactive
Mnn1 | DRSC03368 | inactive
LS2 | DRSC04340 | inactive
TrpA1 | DRSC10544 | inactive
Oxp | DRSC06712 | inactive
CG33689 | DRSC09424 | inactive
CG11635 + spaw | DRSC06075 | inactive
Wdr62 | DRSC00081 | inactive
Wdr62 | DRSC00082 | inactive
Wdr62 | DRSC00701 | inactive
Wdr62 | DRSC21913 | inactive
Argl + CG9515 | DRSC03243 | inactive
Argl + CG9515 | DRSC03245 | inactive
Spn | DRSC07986 | inactive
Spn | DRSC08490 | inactive
Spn | DRSC08491 | inactive
U2A | DRSC06445 | inactive
Eip63F-1 | DRSC08072 | inactive
Eip63F-1 | DRSC08659 | inactive
Rsph1 | DRSC02864 | inactive
pdm2 | DRSC02496 | inactive
pdm2 | DRSC02497 | inactive
pdm2 | DRSC03587 | inactive
CG5674 | DRSC02874 | inactive
Lsp1beta | DRSC00757 | inactive
Indy | DRSC10393 | inactive
Rabex-5 | DRSC08628 | inactive
ND-20 | DRSC20164 | inactive
EMC7 | DRSC07162 | inactive
Pal2 | DRSC04507 | inactive
CG2006 + Spase12 | DRSC14316 | inactive
orb | DRSC17021 | inactive
Nup93-1 | DRSC19344 | inactive
CG12531 | DRSC19466 | inactive
CG31674 | DRSC03208 | inactive
CG15020 | DRSC08474 | inactive
CG11741 | DRSC14367 | inactive
cnn | DRSC05422 | inactive
cnn | DRSC07596 | inactive
